The target in this assay is Galectin-1 (human (endogenous in ESCC cells)) (UniProt P09382). As to the kind of experiment: co-IP; total proteins from ESCC cells (with or without ESCCAL-1 knockdown) incubated with primary antibody overnight at 4 °C, protein A/G magnetic beads, eluate analysed by western blot. (In general: A western blot detects proteins with antibodies after separation by electrophoresis.)

By UniProt entry, the sequences of proteins in these tests, tags left out.
UniProt P09382: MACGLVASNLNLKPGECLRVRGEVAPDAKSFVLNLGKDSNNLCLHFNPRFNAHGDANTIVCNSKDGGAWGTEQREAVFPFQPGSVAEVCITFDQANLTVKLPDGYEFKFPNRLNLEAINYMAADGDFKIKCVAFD
UniProt Q9HCE7: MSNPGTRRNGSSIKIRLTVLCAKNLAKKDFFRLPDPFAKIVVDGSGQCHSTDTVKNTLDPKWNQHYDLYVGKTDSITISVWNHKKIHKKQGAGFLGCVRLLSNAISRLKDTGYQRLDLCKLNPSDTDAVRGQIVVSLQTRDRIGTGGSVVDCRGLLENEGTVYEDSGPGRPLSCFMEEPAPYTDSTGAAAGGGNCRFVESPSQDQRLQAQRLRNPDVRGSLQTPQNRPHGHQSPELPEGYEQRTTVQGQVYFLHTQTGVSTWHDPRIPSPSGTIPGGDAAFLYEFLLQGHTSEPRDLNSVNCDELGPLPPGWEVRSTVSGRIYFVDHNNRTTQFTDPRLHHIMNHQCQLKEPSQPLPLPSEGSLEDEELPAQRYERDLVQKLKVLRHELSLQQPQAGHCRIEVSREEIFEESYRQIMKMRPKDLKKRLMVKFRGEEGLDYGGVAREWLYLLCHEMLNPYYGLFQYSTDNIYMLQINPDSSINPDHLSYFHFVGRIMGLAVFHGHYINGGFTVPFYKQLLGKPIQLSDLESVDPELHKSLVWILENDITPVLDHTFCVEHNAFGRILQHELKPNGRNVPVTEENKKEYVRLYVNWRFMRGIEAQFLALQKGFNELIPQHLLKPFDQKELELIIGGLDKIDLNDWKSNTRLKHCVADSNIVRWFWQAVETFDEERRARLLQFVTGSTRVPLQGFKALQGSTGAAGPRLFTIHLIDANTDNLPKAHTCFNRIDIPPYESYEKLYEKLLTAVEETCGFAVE

Results are given in words; binding and its absence hold for the method and conditions named. Binding seen in cells or lysates may run through a third protein. Some results given as binding are weak or reduced against the parent protein; the word gives no strength.

Regarding “SMAD-specific E3 ubiquitin protein ligase 1 (from UniProt Q9HCE7 1-757) (enzyme)”, the binding entry is on record as “binds”.

Source of the values: PMC8888636.
